For experiment [1], the target named is T1, cynomolgus monkey CX3CR1 (cynomolgus monkey).
T1 sequence: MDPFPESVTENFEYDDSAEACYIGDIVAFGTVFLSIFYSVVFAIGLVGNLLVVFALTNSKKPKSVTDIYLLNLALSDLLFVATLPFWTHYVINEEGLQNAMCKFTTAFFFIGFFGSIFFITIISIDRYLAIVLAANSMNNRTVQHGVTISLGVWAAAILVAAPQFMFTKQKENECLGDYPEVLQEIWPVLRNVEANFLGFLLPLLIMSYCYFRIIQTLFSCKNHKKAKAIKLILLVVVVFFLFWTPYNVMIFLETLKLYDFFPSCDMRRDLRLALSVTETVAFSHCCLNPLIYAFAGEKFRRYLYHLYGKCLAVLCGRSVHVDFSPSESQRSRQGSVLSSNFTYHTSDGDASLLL
As to the kind of experiment: flow cytometry, CX3CR1-expressing Ba/F3 cells, 200 nM. On the technique in general: Flow cytometry measures light scatter and fluorescence of single cells or particles in a stream.

Experiment [2] has the same target. As to the kind of experiment: flow cytometry, CX3CR1-expressing Ba/F3 cells, 200 nM, grade vs positive antibody (+++ >70%, ++ 40-70%, + 10-40%, - <10%).
For experiment [3] the target is unchanged. The experiment can be described thus: flow cytometry, CX3CR1-expressing Ba/F3 cells, relative to Synagis.

The values below come from patent EP4640709A1.

Residue numbers refer to the chain shown, from its start. Results are given in words; binding and its absence hold for the method and conditions named. Some binding calls cover weakened binding; strength is not graded here.

B1: m1F8-1 antibody (antibody, V domains shown)
VH: QVQLQQSGAELARPGASVKLSCKASGFTFTNYWMQWIKQRPGQGLEWIGAIYPGSGESRYTRKFKGKATLTADKSSSTAYMQLNSLASEDSAVYYCARWAGYSRNAAYWGQGTLVTVSA
VL: DVLMTQTPLSLPVSLGDQASISCRSSQSIVHSSGNTYLEWYLQKPGQSPKLLIYKVSNRFSGVPDRFSGSGSGTDFTLKISRVEAEDLGVYYCFQGSHIPPTFGGGTKLEIK
On to B1, for which the binding entry in experiment [1] and in experiment [2] was “binds” each time.

B2: h1F8-2-2 antibody (antibody, IgG1, V domains shown)
VH: QVQLVQSGAEVKKPGSSVKVSCKASGFTFTNYWMQWIRQAPGQGLEWIGAIYPGSGESRYTRKFKGKATITADKSTSTAYMELSSLRSEDTAVYYCARWAGYSRNAAYWGQGTLVTVSS
VL: B1 VL with V2I, L3V, S14T, L15P, D17E, Q18P, S26R, K50Q, L88V, L109V
B2: the binding result in experiment [3] is reported as “binds”.

B3: m1F8-2 antibody (antibody, V domains shown)
VH: B1 VH
VL: B1 VL with S26R
In the case of B3, the binding entry in experiment [1] and in experiment [2] was “binds” throughout.
